Experiment in all cases: affinity purification with mass spectrometry
In test [1] the target is T1, GFP-3xFLAG tagged TOFU-6 (C. elegans) (UniProt Q09293).
T1 sequence: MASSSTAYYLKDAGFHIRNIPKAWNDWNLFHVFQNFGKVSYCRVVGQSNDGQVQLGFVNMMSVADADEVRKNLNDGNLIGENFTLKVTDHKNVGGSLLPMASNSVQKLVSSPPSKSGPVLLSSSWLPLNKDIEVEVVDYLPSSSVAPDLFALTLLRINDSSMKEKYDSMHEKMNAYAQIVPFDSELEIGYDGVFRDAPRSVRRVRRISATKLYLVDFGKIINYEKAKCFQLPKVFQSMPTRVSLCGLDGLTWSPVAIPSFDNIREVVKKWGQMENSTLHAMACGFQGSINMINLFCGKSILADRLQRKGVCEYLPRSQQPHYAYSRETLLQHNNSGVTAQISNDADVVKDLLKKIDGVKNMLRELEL

Test [2] addresses T2, GFP-3xFLAG tagged TOST-1 (C. elegans) (UniProt Q18490).
T2 sequence: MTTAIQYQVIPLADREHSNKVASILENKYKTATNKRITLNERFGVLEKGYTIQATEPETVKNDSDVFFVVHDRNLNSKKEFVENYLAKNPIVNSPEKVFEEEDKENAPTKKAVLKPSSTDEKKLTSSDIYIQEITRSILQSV

Test [3] deals with T3, GFP-3xFLAG tagged ERH-2 (C. elegans) (UniProt Q20057).
T3 sequence: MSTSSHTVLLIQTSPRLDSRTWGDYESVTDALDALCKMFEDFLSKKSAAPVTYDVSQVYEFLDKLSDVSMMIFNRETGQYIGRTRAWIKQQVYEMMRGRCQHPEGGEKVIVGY

In test [4] the target is T4, GFP::3xFLAG tagged PICS-1 (C. elegans) (UniProt O76616).
T4 sequence: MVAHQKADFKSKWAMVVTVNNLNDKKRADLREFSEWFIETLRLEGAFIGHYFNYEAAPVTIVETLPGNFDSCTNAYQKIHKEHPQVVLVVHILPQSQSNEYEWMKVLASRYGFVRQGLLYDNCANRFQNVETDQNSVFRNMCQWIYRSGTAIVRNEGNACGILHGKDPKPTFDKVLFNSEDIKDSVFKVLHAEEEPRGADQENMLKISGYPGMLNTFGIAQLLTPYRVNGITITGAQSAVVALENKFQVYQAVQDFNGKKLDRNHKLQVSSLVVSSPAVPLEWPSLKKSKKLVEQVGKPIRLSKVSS

Results are given in words; binding and its absence hold for the method and conditions named. In cells and extracts the contact can be indirect. A yes stands for co-enrichment or nearness to the bait. Other partners may have been found. A no says only that the protein was not detected with the bait. Sequences can lack the tags named with a protein.

B1: PID-1 (protein, UniProt Q19541 1-169)
chain: MSAKREFSHITLASTPFKKRIDQNSLKTDSDIEKDTNIAHKCAERFNYNTNLHRKVTLSDRFELAALGYEMKAKPRTIIEKHNDCDEFHFIYRKEKKNDYGTGSPLSAGLSLSNPLPAGRGFLSPAIQNTSNQFTFSGSPRITPQKHTPVSANHKPARSIFDDIPSNIA
As to B1, in test [1], the binding result is listed as “binds”.

B2: IFE-3 (protein, UniProt O61955 1-251)
chain: MSTSVAENKALSASGDVNASDASVPPELLTRHPLQNRWALWYLKADRNKEWEDCLKMVSLFDTVEDFWSLYNHIQSAGGLNWGSDYYLFKEGIKPMWEDVNNVQGGRWLVVVDKQKLQRRTQLLDHYWLELLMAIVGEQFDEYGDYICGAVVNVRQKGDKVSLWTRDATRDDVNLRIGQVLKQKLSIPDTEILRYEVHKDSSARTSSTVKPRICLPAKDPAPVKEKGPAATTSPSNPGTEATGTSPATPTP
With B2, the binding entry in test [1] and in test [2] was “binds” throughout.

B3: PARN-1 (protein, UniProt Q21412 1-566)
chain: MVIVTDSNFLDAAGTLRKGLLYCDFVAIDFEFLGLDVSAISLHDTVESRYQILRDNVIKYRPCQLGLTLFKQKSNRAYKADTYSVPLFQRFGDNDTSISLPSMRFLVKNKFNLNQVFMDGVEFCTRKEFKKFERALLAGTAASYLSREVKSQIELLKVMVHEKCYQSTSYHITHRTDEPMQKIPLKMKPNSSVSLRMPRNLSSVEKYMIIYELTKAFPQFLFTCDEKQQNLHVKNISDDYLKEKDNLERARARCSESVKGVSAILQVVHMTGKLVVGHNSLLDAMYMYHYFFSHLPANYQMFKDKFNALFPRIMDTKLLAQALRFELPGVGDSLENLGDYFGSDKSDKTVPPELRGFIEPWMNPLEDESENVYHNAGFDSYVTGEVFLKLAHIYINRRNNFKNEILDFDRIYQYLEAPILNRLPFQLMDVGCCYLTGDDSKGFRPDVITIVRRDRVAIEEDEFRYLEKALGTLMATYQFDIEWSKNKKELFLATNSPGSYAFLCEKFSNDSSLAPLDELDSGKKWTFEQRQTAWRSFKNRGVGIGINAKRIRAQNQATKIQRAMEI
With B3, the binding entry in test [3], in test [1], in test [2] and in test [4] was “no binding” throughout.

B4: TOST-1 (twenty-one u antagonist-1) (protein, UniProt Q18490 1-142)
chain: MTTAIQYQVIPLADREHSNKVASILENKYKTATNKRITLNERFGVLEKGYTIQATEPETVKNDSDVFFVVHDRNLNSKKEFVENYLAKNPIVNSPEKVFEEEDKENAPTKKAVLKPSSTDEKKLTSSDIYIQEITRSILQSV
For the molecule B4, in test [1], the binding result is on record as “binds”.

Source of the values: publication doi:10.1101/463919.
